From patent US20250283871A1, “COMPOSITIONS AND METHODS FOR MODULATING THE INTERACTION BETWEEN SS18-SSX FUSION ONCOPROTEIN AND NUCLEOSOMES” (Dana-Farber Cancer Institute, Inc., priority 2020, published 2025)

System: BAF complex subunits and histone proteins
Assay: Mass spectrometry proteomics of purified HA-SS18 WT and HA-SS18-SSX1 complexes (Tables 5A-5E)
Set-up: species or system human
Details: HEK-293T
[1] = HA-SS18SSX1_CHR_peptides: protein identified in the HA-SS18-SSX1 purification from solubilized chromatin (CHR)
[2] = HA-SS18SSX1 purification, NE (soluble nuclear extract) fraction, peptides per identified protein
[3] = HA-SS18WT_CHR_peptides: HA-SS18 WT purification from nuclease-treated solubilized chromatin (CHR), label = protein identified
[4] = HA-SS18WT_NE_peptides: proteins co-purified with HA-SS18 WT from nuclear extract (NE)
[5] = HA-SS18WT_CHR_peptides: protein identified in HA-SS18 WT BAF complex purification from nuclease-treated solubilized chromatin (CHR)
[6] = HA-SS18WT_NE_peptides: HA-SS18 WT complexes purified from nuclear extract (NE), label = protein identified (Gene Symbol)

Molecule	Total (total peptides) [1]	Unique (unique peptides) [1]	Total (total peptides) [2]	Unique (unique peptides) [2]	Total (peptides) [3]	Unique (peptides) [3]	Total (peptides) [4]	Unique (peptides) [4]	Total (total peptides) [5]	Unique (unique peptides) [5]	Total (peptides) [6]	Unique (peptides) [6]
PRPF19 (protein, UniProt Q9UMS4 2-504, looked up) Pre-mRNA-processing factor 19: SLICSISNEVPEHPCVSPVSNHVYERRLIEKYIAENGTDPINNQPLSEEQLIDIKVAHPIRPKPPSATSIPAILKALQDEWDAVMLHSFTLRQQLQTTRQELSHALYQHDAACRVIARLTKEVTAAREALATLKPQAGLIVPQAVPSSQPSVVGAGEPMDLGELVGMTPEIIQKLQDKATVLTTERKKRGKTVPEELVKPEELSKYRQVASHVGLHSASIPGILALDLCPSDTNKILTGGADKNVVVFDKSSEQILATLKGHTKKVTSVVFHPSQDLVFSASPDATIRIWSVPNASCVQVVRAHESAVTGLSLHATGDYLLSSSDDQYWAFSDIQTGRVLTKVTDETSGCSLTCAQFHPDGLIFGTGTMDSQIKIWDLKERTNVANFPGHSGPITSIAFSENGYYLATAADDSSVKLWDLRKLKNFKTLQLDNNFEVKSLIFDQSGTYLALGGTDVQIYICKQWTEILHFTEHSGLTTGVAFGHHAKFIASTGMDRSLKFYSL	8	7	3	3	3	3	1	1				
CCDC86 (protein, UniProt Q9H6F5 1-360, looked up) Coiled-coil domain-containing …: MDTPLRRSRRLGGLRPESPESLTSVSRTRRALVEFESNPEETREPGSPPSVQRAGLGSPERPPKTSPGSPRLQQGAGLESPQGQPEPGAASPQRQQDLHLESPQRQPEYSPESPRCQPKPSEEAPKCSQDQGVLASELAQNKEELTPGAPQHQLPPVPGSPEPYPGQQAPGPEPSQPLLELTPRAPGSPRGQHEPSKPPPAGETVTGGFGAKKRKGSSSQAPASKKLNKEELPVIPKGKPKSGRVWKDRSKKRFSQMLQDKPLRTSWQRKMKERQERKLAKDFARHLEEEKERRRQEKKQRRAENLKRRLENERKAEVVQVIRNPAKLKRAKKKQLRSIEKRDTLALLQKQPPQQPAAKI	8	7			7	7						
DKC1 (protein, UniProt O60832 2-514, looked up) H/ACA ribonucleoprotein …: ADAEVIILPKKHKKKKERKSLPEEDVAEIQHAEEFLIKPESKVAKLDTSQWPLLLKNFDKLNVRTTHYTPLACGSNPLKREIGDYIRTGFINLDKPSNPSSHEVVAWIRRILRVEKTGHSGTLDPKVTGCLIVCIERATRLVKSQQSAGKEYVGIVRLHNAIEGGTQLSRALETLTGALFQRPPLIAAVKRQLRVRTIYESKMIEYDPERRLGIFWVSCEAGTYIRTLCVHLGLLLGVGGQMQELRRVRSGVMSEKDHMVTMHDVLDAQWLYDNHKDESYLRRVVYPLEKLLTSHKRLVMKDSAVNAICYGAKIMLPGVLRYEDGIEVNQEIVVITTKGEAICMAIALMTTAVISTCDHGIVAKIKRVIMERDTYPRKWGLGPKASQKKLMIKQGLLDKHGKPTDSTPATWKQEYVDYSESAKKEVVAEVVKAPQVVAEAAKTAKRKRESESESDETPPAAPQLIKKEKKKSKKDKKAKAGLESGAEPGDGDSDTTKKKKKKKKAKEVELVSE	8	7							1	1		
BCL7B: BAF complex subunit quantified in the IP MS (protein, UniProt Q9BQE9 1-202, looked up) B-cell CLL/lymphoma 7 protein …: MSGRSVRAETRSRAKDDIKKVMAAIEKVRKWEKKWVTVGDTSLRIFKWVPVTDSKEKEKSKSNSSAAREPNGFPSDASANSSLLLEFQDENSNQSSVSDVYQLKVDSSTNSSPSPQQSESLSPAHTSDFRTDDSQPPTLGQEILEEPSLPSSEVADEPPTLTKEEPVPLETQVVEEEEDSGAPPLKRFCVDQPTVPQTASES	8	5	4	4	3	3					12	5
TRA2A (protein, UniProt Q13595 2-282, looked up) Transformer-2 protein homolog …: SDVEENNFEGRESRSQSKSPTGTPARVKSESRSGSRSPSRVSKHSESHSRSRSKSRSRSRRHSHRRYTRSRSHSHSHRRRSRSRSYTPEYRRRRSRSHSPMSNRRRHTGSRANPDPNTCLGVFGLSLYTTERDLREVFSRYGPLSGVNVVYDQRTGRSRGFAFVYFERIDDSKEAMERANGMELDGRRIRVDYSITKRAHTPTPGIYMGRPTHSGGGGGGGGGGGGGGGGRRRDSYYDRGYDRGYDRYEDYDYRYRRRSPSPYYSRYRSRSRSRSYSPRRY	8	4							2	2		
MPHOSPH10 (protein, UniProt O00566 1-681, looked up) U3 small nucleolar …: MAPQVWRRRTLERCLTEVGKATGRPECFLTIQEGLASKFTSLTKVLYDFNKILENGRIHGSPLQKLVIENFDDEQIWQQLELQNEPILQYFQNAVSETINDEDISLLPESEEQEREEDGSEIEADDKEDLEDLEEEEVSDMGNDDPEMGERAENSSKSDLRKSPVFSDEDSDLDFDISKLEQQSKVQNKGQGKPREKSIVDDKFFKLSEMEAYLENIEKEEERKDDNDEEEEDIDFFEDIDSDEDEGGLFGSKKLKSGKSSRNLKYKDFFDPVESDEDITNVHDDELDSNKEDDEIAEEEAEELSISETDEDDDLQENEDNKQHKESLKRVTFALPDDAETEDTGVLNVKKNSDEVKSSFEKRQEKMNEKIASLEKELLEKKPWQLQGEVTAQKRPENSLLEETLHFDHAVRMAPVITEETTLQLEDIIKQRIRDQAWDDVVRKEKPKEDAYEYKKRLTLDHEKSKLSLAEIYEQEYIKLNQQKTAEEENPEHVEIQKMMDSLFLKLDALSNFHFIPKPPVPEIKVVSNLPAITMEEVAPVSVSDAALLAPEEIKEKNKAGDIKTAAEKTATDKKRERRKKKYQKRMKIKEKEKRRKLLEKSSVDQAGKYSKTVASEKLKQLTKTGKASFIKDEGKDKALKSSQAFFSKLQDQVKMQINDAKKTEKKKKKRQDISVHKLKL	7	7			7	6						
FTSJ3 (protein, UniProt Q8IY81 1-847, looked up) pre-rRNA 2'-O-ribose RNA …: MGKKGKVGKSRRDKFYHLAKETGYRSRSAFKLIQLNRRFQFLQKARALLDLCAAPGGWLQVAAKFMPVSSLIVGVDLVPIKPLPNVVTLQQDITTERCRQALRKELKTWKVDVVLNDGAPNVGASWVHDAYSQAHLTLMALRLACDFLARGGSFITKVFRSRDYQPLLWIFQQLFRRVQATKPQASRHESAEIFVVCQGFLAPDKVDSKFFDPKFAFKEVEVQAKTVTELVTKKKPKAEGYAEGDLTLYHRTSVTDFLRAANPVDFLSKASEIMVDDEELAQHPATTEDIRVCCQDIRVLGRKELRSLLNWRTKLRRYVAKKLKEQAKALDISLSSGEEDEGDEEDSTAGTTKQPSKEEEEEEEEEQLNQTLAEMKAQEVAELKRKKKKLLREQRKQRERVELKMDLPGVSIADEGETGMFSLSTIRGHQLLEEVTQGDMSAADTFLSDLPRDDIYVSDVEDDGDDTSLDSDLDPEELAGVRGHQGLRDQKRMRLTEVQDDKEEEEEENPLLVPLEEKAVLQEEQANLWFSKGSFAGIEDDADEALEISQAQLLFENRRKGRQQQQKQQLPQTPPSCLKTEIMSPLYQDEAPKGTEASSGTEAATGLEGEEKDGISDSDSSTSSEEEESWEPLRGKKRSRGPKSDDDGFEIVPIEDPAKHRILDPEGLALGAVIASSKKAKRDLIDNSFNRYTFNEDEGELPEWFVQEEKQHRIRQLPVGKKEVEHYRKRWREINARPIKKVAEAKARKKRRMLKRLEQTRKKAEAVVNTVDISEREKVAQLRSLYKKAGLGKEKRHVTYVVAKKGVGRKVRRPAGVRGHFKVVDSRMKKDQRAQQRKEQKKKHKRK	7	7			12	12						
SKIV2L2 (protein, UniProt P42285 2-1042, looked up) Exosome RNA helicase MTR4: ADAFGDELFSVFEGDSTTAAGTKKDKEKDKGKWKGPPGSADKAGKRFDGKLQSESTNNGKNKRDVDFEGTDEPIFGKKPRIEESITEDLSLADLMPRVKVQSVETVEGCTHEVALPAEEDYLPLKPRVGKAAKEYPFILDAFQREAIQCVDNNQSVLVSAHTSAGKTVCAEYAIALALREKQRVIFTSPIKALSNQKYREMYEEFQDVGLMTGDVTINPTASCLVMTTEILRSMLYRGSEVMREVAWVIFDEIHYMRDSERGVVWEETIILLPDNVHYVFLSATIPNARQFAEWICHLHKQPCHVIYTDYRPTPLQHYIFPAGGDGLHLVVDENGDFREDNFNTAMQVLRDAGDLAKGDQKGRKGGTKGPSNVFKIVKMIMERNFQPVIIFSFSKKDCEAYALQMTKLDFNTDEEKKMVEEVFSNAIDCLSDEDKKLPQVEHVLPLLKRGIGIHHGGLLPILKETIEILFSEGLIKALFATETFAMGINMPARTVLFTNARKFDGKDFRWISSGEYIQMSGRAGRRGMDDRGIVILMVDEKMSPTIGKQLLKGSADPLNSAFHLTYNMVLNLLRVEEINPEYMLEKSFYQFQHYRAIPGVVEKVKNSEEQYNKIVIPNEESVVIYYKIRQQLAKLGKEIEEYIHKPKYCLPFLQPGRLVKVKNEGDDFGWGVVVNFSKKSNVKPNSGELDPLYVVEVLLRCSKESLKNSATEAAKPAKPDEKGEMQVVPVLVHLLSAISSVRLYIPKDLRPVDNRQSVLKSIQEVQKRFPDGIPLLDPIDDMGIQDQGLKKVIQKVEAFEHRMYSHPLHNDPNLETVYTLCEKKAQIAIDIKSAKRELKKARTVLQMDELKCRKRVLRRLGFATSSDVIEMKGRVACEISSADELLLTEMMFNGLFNDLSAEQATALLSCFVFQENSSEMPKLTEQLAGPLRQMQECAKRIAKVSAEAKLEIDEETYLSSFKPHLMDVVYTWATGATFAHICKMTDVFEGSIIRCMRRLEELLRQMCQAAKAIGNTELENKFAEGITKIKRDIVFAASLYL	7	7			3	3	2	2				
